Results are given in words; binding and its absence hold for the method and conditions named. In cells and extracts the contact can be indirect. Some results given as binding are weak or reduced against the parent protein; the word gives no strength.

By UniProt entry, the sequences of proteins in these tests, tags left out. Where a name states a change or a piece, a line headed by the entry shows the natural chain unless it says otherwise.
UniProt Q86U44: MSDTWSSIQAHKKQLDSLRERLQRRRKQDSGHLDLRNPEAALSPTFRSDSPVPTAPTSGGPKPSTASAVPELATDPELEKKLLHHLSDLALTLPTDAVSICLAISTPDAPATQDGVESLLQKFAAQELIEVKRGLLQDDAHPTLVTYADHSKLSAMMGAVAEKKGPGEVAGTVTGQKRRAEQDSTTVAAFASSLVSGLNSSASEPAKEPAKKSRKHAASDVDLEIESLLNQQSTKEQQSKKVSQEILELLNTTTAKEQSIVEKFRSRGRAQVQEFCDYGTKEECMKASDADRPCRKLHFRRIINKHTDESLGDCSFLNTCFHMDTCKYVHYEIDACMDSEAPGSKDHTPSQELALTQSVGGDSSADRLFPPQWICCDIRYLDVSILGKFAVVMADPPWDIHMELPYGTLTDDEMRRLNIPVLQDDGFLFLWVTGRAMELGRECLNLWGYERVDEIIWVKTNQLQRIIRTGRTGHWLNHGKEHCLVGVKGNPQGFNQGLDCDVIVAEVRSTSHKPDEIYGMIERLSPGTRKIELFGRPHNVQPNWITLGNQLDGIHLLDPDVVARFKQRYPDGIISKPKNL

For 1 substance, binding results are on record in publication PMC8865655.

For test [1], the target named is FLAG-METTL3 D395A (UniProt Q86U44). The experiment in a line: co-IP; transfected HEK293T co-expressing the two tagged proteins; lysis in 50 mM Tris-HCl pH 7.5, 150 mM NaCl, 0.5% Triton X-100, 1 mM EDTA; Anti-DYKDDDDK magnetic agarose, 5 washes; immunoblot.
The target in test [2] is FLAG-METTL3 N549A/Q550A (UniProt Q86U44). The test is described as above.

Consider “Cry2-mCh-METTL3 (wild type, full-length construct) (from UniProt Q86U44 1-580)”, for which the binding result in test [1] and in test [2] was “binds” each time.
